Assay results published in PubChem BioAssay AID493014 (National Center for Advancing Translational Sciences (NCATS), 2011).
Out of some 340,000 compounds screened, about 170 (0.05%) were called active. The inconclusive results got no clear call from the source; some entries with a clear call stand among them for comparison. Calls come from the whole dose curve; as a rule, active = well fitted inhibition curve with a large enough effect in the signal ratio, with a control signal flat (not every such curve was filed as active); inconclusive = small, poorly fitted or top-dose-only effect, or effect the other way, or a change in a side signal; inactive = flat fitted curve, though single readings scatter; the % refers to the signal ratio. Potencies of inconclusive entries are doubtful fits and often do not repeat.

Assay: qHTS Assay to Find Inhibitors of Chronic Active B-Cell Receptor Signaling;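 for activity change, negative = inhibition: plate controls were basal doxycycline-induced cells for no effect and cells given 10 µM MG132 for full effect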
Settings: ABC-DLBCL IkBa-CBG/CBR reporter, luminescence ratio (green luciferase fused to IkBa over red control in TMD8 lymphoma cells), 4 h; activity change, negative = inhibition: at 46.1 µM (top of the series)
Procedure, shortened: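 Doxycycline induced both beetle luciferases in TMD8 lymphoma cells; IKK-driven degradation limits the IkappaBalpha-fused green signal, while red luminescence normalises for cell number and nonspecific effects. Compounds tested up to 46 uM, 4 hrs.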
Potency is the fitted concentration of half-maximal effect.

SMILES | activity change, negative = inhibition | Potency
O=c1/c(=C\c2ccc(O)cc2)sc2nc(-c3ccccc3)c(-c3ccccc3)n12 | inconclusive: -11.5% | 
O=C(C1CCCCC1)N1CCc2[nH]c3ccc(F)cc3c2C1 | inconclusive: 12.4% | 
CN(c1ccc(C(=O)Nc2ccc(F)cc2F)cc1)S(=O)(=O)c1ccccc1 |  | inconclusive: 10 µM [falling, partial curve]
CC1(NC(=O)N2CCCCC2)CCS(=O)(=O)C1 (stereo not drawn) | inconclusive: 6.6% | 
Cc1cccc(-n2c(CCCN3C(=O)c4ccccc4C3=O)nc3ccccc3c2=O)n1 | inconclusive: 1.53% | 
NC(=O)C1CCN(CC(=O)Nc2cc(S(=O)(=O)N3CCOCC3)ccc2N2CCCC2)CC1 | inactive: 0.378% | 
CCOc1ccc2nc(NC(=O)Nc3ccccc3)sc2c1 |  | inconclusive: 10.3 µM [falling, partial curve, poor fit]
Cc1oc(-c2cccs2)nc1CN1CCC(CO)(CCOc2ccccc2)CC1 | inconclusive: 5.16% | 
CCN(CC)CCNCC(=O)N1c2ccccc2CCc2ccc(NC(=O)OC)cc21 | inactive: 2.62% | 
C=CCN(C(=O)Cn1nc(C)n2c(cc3cc(C)ccc32)c1=O)c1ccccc1 | inconclusive: 13.3% | 
CCOc1ccc(Br)cc1S(=O)(=O)Nc1cccc(S(=O)(=O)N(C)c2ccccc2)c1 | inconclusive: 1.74% | 
O=C(Nc1nnc(C(F)(F)F)s1)c1ccc(N2C(=O)C3C4C=CC(C4)C3C2=O)cc1 (stereo not drawn) |  | inconclusive: 3.66 µM [rising, full curve, poor fit]
O=C(NC1CCCCCC1)C(=S)NC1CCCCC1 | inconclusive: 1.75% | 
CC1CCc2c(sc(NC(=O)CSc3ncn[nH]3)c2C#N)C1 (stereo not drawn) |  | inconclusive: 31.6 µM [rising, single point]
COc1cc(C2N3CC4(C)CN2CC(C)(C3)C4)ccc1O (stereo not drawn) | inconclusive: 11.3% | 
O=C(CNC(=O)c1ccc2ccccc2c1)NC1CCCCC1 | inconclusive: -13.8% | 
COc1cccc(-c2nnc(SCc3cccnc3)o2)c1 | inconclusive: -2.56% | 
CCC(CC)c1nnc(NC(=O)[C@@H](NC(=O)c2cccc(C)c2)C(C)C)s1 | inconclusive: 12% | 
O=C(Nn1cc(C(=O)Nc2ccc(F)cc2F)c2ccccc2c1=O)c1cnccn1 | inactive: 6.95% | 
Cc1cc2nc[nH]c2cc1[N+](=O)[O-] | inconclusive: -0.767% | 
CCn1c(SCC(=O)OC(C)C)nnc1-c1ccccc1 | inactive: -1.04% | 
COc1ccc(-c2cc(-c3ccco3)[nH]c(=O)c2C#N)cc1OC | inconclusive: 16.2% | 
CCC(=O)Nc1cc2nn(-c3ccc(OC)cc3)nc2cc1C | inconclusive: 4.04% | 

Complete entries as entered above.
CCC(=O)Nc1cc2nn(-c3ccc(OC)cc3)nc2cc1C as listed: activity change, negative = inhibition: inconclusive: 4.04%
COc1cc(C2N3CC4(C)CN2CC(C)(C3)C4)ccc1O (stereo not drawn) as listed: activity change, negative = inhibition: inconclusive: 11.3%
